Results as given in patent publication US11219623B2, “Inflammasome inhibition for the treatment of Parkinson's disease, Alzheimer's disease and multiple sclerosis” (University of Kentucky Research Foundation, priority 2015, dated 2022).
At least one compound was matched to its structure with a doubt left.

How the values were obtained:
[1] = tested on: GFP-expressing lentivirus; experiment: GFP-expressing lentivirus transduction/replication assay in HeLa cells; assay type: cell-based; conditions: 10 μM; 72 hours; MOI 20
Procedure: All drugs were added at a concentration of 10 μM. Cells were imaged for GFP expression 72 hours after addition of lentivirus. GFP-positive cells per field of view were recorded. n=4-11, error bars S.E.M. Reverse transcription of lentivirus is essential for GFP expression; modified NRTIs should not block reverse transcriptase, whereas NRTIs are known to block reverse transcriptase.
The present disclosure further provides the results of additional experiments in FIG. 21-FIG. 23.

Caspase-1 = experiment: Paraquat-induced Caspase-1 activation, primary human RPE cells; assay type: cell-based; conditions: 25 μM

**Q.** What does the source list for `Nc1ccn([C@@H]2CS[C@H](CO)O2)c(=O)n1`?
**A.** lentivirus replication (GFP-positive cells per field) [1]: blocked lentivirus GFP expression; Paraquat (250 μM)-induced Caspase-1 activation (Caspase-1): reduced
